PubChem BioAssay AID1224830 – NIAID, 2016

Screen: 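Genes whose knock-down alters the TNF-alpha reporter response to LPS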 (primary screen)
Cell system: human THP-1 monocytic leukaemia cells, TNF dual-luciferase reporter clone, PMA-differentiated to macrophage-like cells
Knock-down reagent: siRNA pool against human genes, 50 nM
Duration: LPS for 4 h, given about 3 days after siRNA transfection
Conditions: bacterial LPS (TLR4 ligand), 10 ng/ml
Measured: 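Ratio of firefly to renilla light, scaled to the plate median and expressed as a robust z-score per replicate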
Reading the numbers: TNF reporter robust z-score: higher = stronger TNF reporter response to LPS
Active means: 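Each well counts as active if its z-score is over 2.8 or under -1.5; controls are left without a call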
The whole screen tested about 18,000 reagents; this is a random part of them. About 2,900 of them (16%) count as active. 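Calls are made per well; low scores hint the gene aids the LPS response, high scores that it dampens it.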 Entries without a mark were called inactive. Repeated entries: four replicate wells of each siRNA pool. No sequences are given here.

Gene	TNF reporter robust z-score
EPHB3	2.08
EPHB3	1.86
EPHB3	1.82
EPHB3	0.14
PHF13	0.72
PHF13	1.95
PHF13	2.67
PHF13	1.23
PDCL3	0.02
PDCL3	0.36
PDCL3	1.55
PDCL3	1.61
LEF1	0.36
LEF1	1.1
LEF1	-0.28
LEF1	-0.36
NELFE	0.9
NELFE	0.91
NELFE	0.41
NELFE	-0.16
STAG3L1	1.88
STAG3L1	-0.56
STAG3L1	-0.77
STAG3L1	0.29
COX6B2	-1.32
COX6B2	-0.61
COX6B2	-1.43
COX6B2	-0.96
KCNA6	-0.62
KCNA6	-0.11
KCNA6	1.58
KCNA6	-0.13
ARL4A	-1.27
ARL4A	0.74
ARL4A	0.12
ARL4A	-0.24
HGFAC	0.8
HGFAC	0.33
HGFAC	0.9
HGFAC	0.78
EXTL2	-0.09
EXTL2	1.99
EXTL2	0.23
EXTL2	1.5
ANK2	-1.12
ANK2	-1.21
ANK2	-1.26
ANK2	-1.03
